Measured values published in PubChem BioAssay AID624291 (National Center for Advancing Translational Sciences (NCATS), 2012).
In all, about 350,000 compounds went through this assay and about 220 (0.063%) were called active. This list was built around the results that the source calls inconclusive (neither active nor inactive); the mix of calls is not that of the screen. The call rests on the fitted dose curve; in most records, active means well fitted activation curve with a large enough effect; inconclusive means small, poorly fitted or top-dose-only effect; inactive means no such curve, though single readings can be large or run the other way. Where the call is inconclusive, the potency comes from a doubtful curve fit.

Assay: qHTS for Activators of Integrin-Mediated Alleviation for Muscular Dystrophy; further: nearly all actives have a fitted effect of over 60% in size;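 on activation: 100% = response of the positive control SU9516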
Settings: alpha7betagal myoblasts, beta-gal FDG fluorescence, 48 h; activation: at 38.3 µM (top of the series)
Description: Integrins are a diverse family of transmembrane cell surface receptors that mediate interactions between cells and the extracellular matrix. These heterodimeric proteins are composed of alpha and beta subunits and the a7b1 interacts with laminin in the extracellular matrix and actin of the cell cytoskeleton. Both chains contribute to ligand binding, but the alpha chain mediates the specificity of the interaction. The alpha7beta1 integrin is a major laminin receptor in skeletal, cardiac and vascular smooth muscle. Mutations in the alpha7 integrin gene are responsible for muscular dystrophy in both humans and mice. The alpha7beta1 integrin is also a major modifier of muscle disease progression in various muscle diseases including Duchenne muscular dystrophy, Fukuyama muscular dystrophy and merosin deficient congenital muscular dystrophy type 1A. […] Transcriptional regulation of the alpha7 integrin gene is poorly understood and probably involves multiple transcription factors. The goal of identifying small molecules that enhance alpha7 integrin expression is two-fold: firstly, such molecules would help us gain insight into the complex transcriptional control of alpha7 integrin. It is known that alpha7 integrin expression is tightly controlled during various stages of development, disease and in response to external stimuli. The second goal of the project is to translate the above finding into a therapeutic strategy for muscular dystrophy. […] Thus this project aims to discover small molecule probes that would not only help in gaining a better understanding of the complex regulatory mechanism of alpha7 integrin expression, but also lead to development of pharmacological agents to fight muscular dystrophy. NIH Chemical Genomics Center [NCGC] NIH Molecular Libraries Probe Centers Network [MLPCN] MLPCN Grant: NS058429 Assay Submitter (PI): Dean Burkin, University of Nevada School of Medicine
A total of 250 alpha7betagal+/- myoblasts at passage 13 were dispensed using a mulitdrop from Thermo into black low base tissue culture treated microclear aurora plates in 6 ul media containing DMEM without phenol, 5% FBS, 1x GluMax and 1x Penicillin/Streptomycin. The plates were incubated 16-24 hr at 37C, 5% CO2, 95% humidity covered with low evaporation stainless steel lids from Kalypsys. Compounds were then dispensed using a Kalypsys pintool to deliver 23 nl/well compounds in DMSO (diluted into 6 uL resulting in a 1:260 dilution of compound). The control compound used was the cdk2 inhibitor SU9516 from Tocirs (found in the initial LOPAC screen). The plates were incubated for 48 hours at 37C, 5% CO2, 95% humidity using the same stainless steel lids. After incubation with compound, 5 ul of the media was aspirated using the Kalypsys washer/dispenser and 3 ul of the Mammalian Protein Extraction Reagent (MPER) lysis buffer (Thermo Fisher) was added. The plates were spun at 2000 rpms to remove bubbles and an initial capture was acquired on the Viewlux (Perkin Elmer) with exciation at 480 nm and emission at 540 nm for 25 seconds to omit any auto fluorescent compounds. The plates were then incubated for 10 minutes at room temperature. After incubation, 3 ul of 125 uM Fluorescein di-galactoside (FDG) (Marker Gene Technologies) diluted in PBS with 2 mM MgCl2 and 0.2% betamercaptoethanol (BME) was added, the plates were spun at 2000 rpms and incubated for 30 minutes at room temperature. The plates were again read on the Viewlux with exciation at 480 nm and emission at 540 nm for 25 seconds.
Potency means the concentration at half of the fitted maximal effect.

Compound | activation | Potency
Cc1cc(N2CCN(C)CC2)nc2ccc(NC(=S)NCCCN3CCc4ccccc4C3)cc12 | inactive: -54.2% | 
O=C(NCc1ccccc1)Nc1cccn(Cc2ccc(F)cc2)c1=O | inactive: -6.88% | 
COc1ccc(C)c2sc(NC(=O)c3cccc(N4C(=O)CCC4=O)c3)nc12 |  | inconclusive: 5.01 µM [activator, single point]
O=C1CN(C(=O)COC(=O)c2cccc(Br)c2)c2ccccc2N1 | inconclusive: 114% [activator] | 
CNc1ccncc1S(=O)(=O)NC | inactive: -2.73% | 
CCCn1nnc(NC(=O)c2ccc(-c3cccc(Cl)c3)o2)n1 | inactive: 5.61% | 
O=c1cc(-c2ccc(O)c(O)c2)oc2cc(O)cc(O)c12 | inactive: -23.4% | 
O=C(c1cnn2c(C(F)(F)F)cc(-c3cccs3)nc12)N1CCN(C(c2ccccc2)c2ccccc2)CC1 |  | inconclusive: 5.01 µM [activator, single point]
O=C(CSc1ccccc1)N1CCCC(Nc2ccccc2)C1 (stereo unspecified) | inactive: -8.26% | 
Cn1c(=O)c2c(O)c(C=NCc3ccccc3)c(=O)n(C)c2n(C)c1=O |  | inconclusive: 3.55 µM [activator, single point]
COC(=O)C1=C(C)NC(C)=C(C(=O)OC)C1c1ccco1 |  | inconclusive: 3.55 µM [activator, partial curve, poor fit]
Cc1ccc(CN2CCNC(=O)C2CC(=O)NCC(F)(F)F)o1 (stereo unspecified) |  | inconclusive: 2.82 µM [activator, single point]
CN(CCCNC(=O)CCCOc1cc(=O)n(C)c2ccccc12)Cc1ccccc1 |  | inconclusive: 2.82 µM [activator, single point]
Cc1cc(C)n2nc(SCC(N)=O)nc2n1 |  | inconclusive: 1.41 µM [activator, partial curve, poor fit]
O=c1ccc(-c2ccccc2)nn1Cc1ccccc1F | inactive: 3.75% | 
Cc1nc(NC(=O)c2ccc3c(c2)OCO3)ccc1Br |  | inconclusive: 3.55 µM [activator, partial curve, poor fit]
CC(C)OCCCNC(=O)Cn1ccc2cc(S(=O)(=O)N3CCCCCC3)ccc21 |  | inconclusive: 28.2 µM [activator, single point]
Cc1ccc(OC(C)C(=O)Nc2ccc3c(c2)n(C)c(=O)n3C)cc1C (stereo unspecified) |  | inconclusive: 28.2 µM [activator, single point]
COc1cccc(-n2nnc3c(=O)n(Cc4c(F)cccc4Cl)cnc32)c1 | inactive: -13.1% | 
O=C(CCCN1C(=O)/C(=C/c2ccccc2Cl)SC1=S)NNC(=O)c1cccnc1 | inactive: -3.47% | 
COc1ccc(NC(=O)NCCCN2CCc3ccccc3C2)cc1 | inactive: 0.427% | 

Entries of single compounds, quoted from the list:
COc1ccc(NC(=O)NCCCN2CCc3ccccc3C2)cc1 is listed as activation: inactive: 0.427%
Cc1ccc(CN2CCNC(=O)C2CC(=O)NCC(F)(F)F)o1 (stereo unspecified) is listed as Potency: inconclusive: 2.82 µM [activator, single point]
